Measurements from paper doi:10.1101/2023.03.06.531310.
Where a chain is given by its changes, count along the chain named. No constants are given. Whether binding was seen depends on the method and setting. Binding seen in cells or lysates may run through a third protein. Some binding calls cover weakened binding; strength is not graded here. For part of these data: Where a sequence is shown, tags or fusion partners need not be part of it.

How the values were obtained:
[1] = target: RFP-FAM122A (mouse) (UniProt Q9DB52); assay: pull-down
[2] = target: GFP-FAM122A (mouse) (UniProt Q9DB52); assay: pull-down
[3] = target: T1, FAM122A(L70-K86) peptide fused to GST (mouse) (UniProt Q9DB52); assay: pull-down
T1 sequence: LPASPVRMHSSRLHQIK

[4] = target: GST-FAM122A (mouse) (UniProt Q9DB52); assay: pull-down
[5] = target: T2, FLAG-FAM122A RLGGIK (helix breaker mutant, Gly) (mouse) (UniProt Q9DB52); assay: co-IP
T2 sequence: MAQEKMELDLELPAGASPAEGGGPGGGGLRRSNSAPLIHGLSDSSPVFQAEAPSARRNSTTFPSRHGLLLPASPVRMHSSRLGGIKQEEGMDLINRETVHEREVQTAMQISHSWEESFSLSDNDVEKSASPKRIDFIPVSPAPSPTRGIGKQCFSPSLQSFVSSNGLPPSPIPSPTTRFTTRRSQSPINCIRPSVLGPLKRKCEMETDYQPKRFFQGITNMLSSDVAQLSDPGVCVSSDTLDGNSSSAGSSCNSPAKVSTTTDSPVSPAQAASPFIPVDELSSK

[6] = target: FLAG-FAM122A wild type (murine) (mouse) (UniProt Q9DB52); assay: co-IP
[7] = target: T3, FLAG-FAM122A RLPPIK (helix breaker mutant, Pro) (mouse) (UniProt Q9DB52); assay: co-IP
T3 sequence: T2 sequence with G83P, G84P

[8] = target: T4, FLAG-FAM122A R81A-L82A (SLiM mutant) (mouse) (UniProt Q9DB52); assay: co-IP
T4 sequence: T2 sequence with R81A, L82A, G83H, G84Q

[9] = target: T5, FLAG-FAM122A E97K (mouse) (UniProt Q9DB52); assay: co-IP
T5 sequence: T2 sequence with G83H, G84Q, E97K

[10] = target: T6, FLAG-FAM122A E97K-E101K (mouse) (UniProt Q9DB52); assay: co-IP
T6 sequence: T2 sequence with G83H, G84Q, E97K, E101K

[11] = target: T7, FLAG-FAM122A E101K (mouse) (UniProt Q9DB52); assay: co-IP
T7 sequence: T2 sequence with G83H, G84Q, E101K

[12] = target: T8, FLAG-FAM122A RLAAIK (helix tolerant mutant) (mouse) (UniProt Q9DB52); assay: co-IP
T8 sequence: T2 sequence with G83A, G84A

B1: endogenous B55α (protein, UniProt P63151 1-447)
chain: MAGAGGGNDIQWCFSQVKGAVDDDVAEADIISTVEFNHSGELLATGDKGGRVVIFQQEQENKIQSHSRGEYNVYSTFQSHEPEFDYLKSLEIEEKINKIRWLPQKNAAQFLLSTNDKTIKLWKISERDKRPEGYNLKEEDGRYRDPTTVTTLRVPVFRPMDLMVEASPRRIFANAHTYHINSISINSDYETYLSADDLRINLWHLEITDRSFNIVDIKPANMEELTEVITAAEFHPNSCNTFVYSSSKGTIRLCDMRASALCDRHSKLFEEPEDPSNRSFFSEIISSISDVKFSHSGRYMMTRDYLSVKIWDLNMENRPVETYQVHEYLRSKLCSLYENDCIFDKFECCWNGSDSVVMTGSYNNFFRMFDRNTKRDITLEASRENNKPRTVLKPRKVCASGKRKKDEISVDSLDFNKKILHTAWHPKENIIAVATTNNLYIFQDKVN
binding [1]: binds | binding [2]: binds | binding [3]: no binding | binding [4]: binds | binding [5]: no binding | binding [6]: binds | binding [7]: no binding | binding [8]: no binding | binding [9]: binds | binding [10]: binds | binding [11]: binds | binding [12]: binds
